No constants are given. Whether binding was seen depends on the method and setting. Binding seen in cells or lysates may run through a third protein. These calls come from enrichment with a bait or labelling near it, and not all partners need be listed. Tags and fused reporters may be left off the sequences shown.
Target: T1, Latrophilin-2 (LPHN2), endogenous (human (endogenous in HEK293T and HUVEC)) (UniProt O95490)
T1 sequence: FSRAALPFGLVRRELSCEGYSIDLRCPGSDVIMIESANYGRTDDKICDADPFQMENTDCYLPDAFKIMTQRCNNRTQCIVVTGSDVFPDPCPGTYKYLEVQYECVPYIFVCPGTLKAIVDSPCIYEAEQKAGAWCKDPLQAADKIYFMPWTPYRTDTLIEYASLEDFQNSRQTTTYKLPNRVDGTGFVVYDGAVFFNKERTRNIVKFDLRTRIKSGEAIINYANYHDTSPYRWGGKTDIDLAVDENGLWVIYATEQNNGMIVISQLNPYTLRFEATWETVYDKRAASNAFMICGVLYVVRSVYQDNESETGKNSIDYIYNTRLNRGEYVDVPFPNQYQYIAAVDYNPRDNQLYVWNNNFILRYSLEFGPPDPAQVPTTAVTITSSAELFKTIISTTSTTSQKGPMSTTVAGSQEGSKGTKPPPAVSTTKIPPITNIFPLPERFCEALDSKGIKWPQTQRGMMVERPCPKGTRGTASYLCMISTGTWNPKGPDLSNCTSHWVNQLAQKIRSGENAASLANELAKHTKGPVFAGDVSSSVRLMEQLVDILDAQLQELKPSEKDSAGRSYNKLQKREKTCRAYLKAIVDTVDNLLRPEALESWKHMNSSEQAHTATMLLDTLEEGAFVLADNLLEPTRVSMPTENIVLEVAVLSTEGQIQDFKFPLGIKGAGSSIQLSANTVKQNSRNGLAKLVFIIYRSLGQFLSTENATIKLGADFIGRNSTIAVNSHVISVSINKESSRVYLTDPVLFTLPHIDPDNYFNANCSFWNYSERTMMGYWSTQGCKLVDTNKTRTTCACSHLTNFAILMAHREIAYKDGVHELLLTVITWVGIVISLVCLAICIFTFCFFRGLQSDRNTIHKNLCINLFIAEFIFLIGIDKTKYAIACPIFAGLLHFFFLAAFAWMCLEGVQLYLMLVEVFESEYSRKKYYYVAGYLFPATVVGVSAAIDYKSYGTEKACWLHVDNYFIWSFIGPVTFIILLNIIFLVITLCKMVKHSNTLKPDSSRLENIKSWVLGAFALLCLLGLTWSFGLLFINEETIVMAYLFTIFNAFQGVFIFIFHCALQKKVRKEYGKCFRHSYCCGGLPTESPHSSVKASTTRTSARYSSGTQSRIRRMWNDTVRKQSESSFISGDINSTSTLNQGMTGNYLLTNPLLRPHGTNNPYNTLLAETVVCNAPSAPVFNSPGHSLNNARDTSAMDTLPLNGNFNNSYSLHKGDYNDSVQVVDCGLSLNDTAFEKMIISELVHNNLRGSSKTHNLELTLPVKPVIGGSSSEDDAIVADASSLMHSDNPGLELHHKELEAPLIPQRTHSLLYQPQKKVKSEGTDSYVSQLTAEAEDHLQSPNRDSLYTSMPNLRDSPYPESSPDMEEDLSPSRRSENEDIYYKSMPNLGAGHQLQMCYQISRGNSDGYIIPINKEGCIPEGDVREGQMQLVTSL
Experiment: affinity purification with mass spectrometry; HUVECs serum-starved 6 h, treated with LRG1 (1 ug/ml) for 0, 10, 30, 60 min, lysed in RIPA buffer; IP with anti-LPHN2 antibody, bands cut from SDS-PAGE gel, nano LC-MS/MS; only the binder purified

binding: binds
B1: Leucine-rich alpha-2-glycoprotein 1 (LRG1), recombinant tag-free human LRG1 (ligand, UniProt P02750 36-347, looked up)
chain: VTLSPKDCQVFRSDHGSSISCQPPAEIPGYLPADTVHLAVEFFNLTHLPANLLQGASKLQELHLSSNGLESLSPEFLRPVPQLRVLDLTRNALTGLPPGLFQASATLDTLVLKENQLEVLEVSWLHGLKALGHLDLSGNRLRKLPPGLLANFTLLRTLDLGENQLETLPPDLLRGPLQLERLHLEGNKLQVLGKDLLLPQPDLRYLFLNGNKLARVAAGAFQGLRQLDMLDLSNNSLASVPEGLWASLGQPNWDMRDGFDISGNPWICDQNLSDLYRWLQAQKDKMFSQNDTRCAGPEAVKGQTLLAVAKSQ
notes: human LRG1, residues V36-Q347; In the TriCEPS capture LRG1 was coupled to the TriCEPS reagent; Residues of the thrombin site may remain after cleavage; also called recombinant LRG1; soluble LRG1; not shown: Fc (human IgG), C-terminal, cleaved
